Laboratory results published in PMC10380766 (International Journal of Molecular Sciences, 2023).
The same purity stands for every peptide and may come from a single statement.

experiment: general procedure: Fmoc solid-phase peptide synthesis; Rink Amide Protide (LL) resin; DIC/Oxyma Pure; settings: whole synthesis, 220 nm

Final HPLC purity, >99%:
CF-XAGYLLGKINLKALAALAKKIL
CF-XAGYLLGKINLKALAAS5*AKKS5*L
CF-XAGYS5*LGKS5*NLKALAALAKKIL
CF-XAS5*YLLS5*KINLKALAALAKKIL
